Measured values reported in PubChem BioAssay AID493014 (National Center for Advancing Translational Sciences (NCATS), 2011).
The other results are listed elsewhere or left out. These are further read-outs of the screen, such as a control signal, another cell line or another target. No call is given for them. Most of these compounds were active or inconclusive in the main read-out, so they are no random draw. Words in brackets tell the shape of the fitted curve; partial curves, single points and poor fits give uncertain potencies.

Test: qHTS Assay to Find Inhibitors of Chronic Active B-Cell Receptor Signaling
Settings: ABC-DLBCL IkBa-CBG/CBR reporter, luminescence ratio (green luciferase fused to IkBa over red control in TMD8 lymphoma cells), 4 h
Summary of the method: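 Doxycycline induced both beetle luciferases in TMD8 lymphoma cells; IKK-driven degradation limits the IkappaBalpha-fused green signal, while red luminescence normalises for cell number and nonspecific effects. Compounds tested up to 46 uM, 4 hrs.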

[1] = measured here: CBR red luminescence, cell number
[2] = measured here: IkBa-CBG green luminescence

Compound	AC50 [1]	AC50 [2]
S=C(Nc1ccc2c(c1)OCO2)NC1CCN(Cc2ccccc2)CC1	18.4 µM [falling, single point]	–
Cc1ccc(C)c(NC(=O)CN2C(=O)CNC2=O)c1	25.9 µM [falling, single point]	–
Cc1c(C(=O)Nc2ccc3c(c2)OCCO3)sc2ncnc(N3CCCCC3C)c12 (configuration not stated)	35.5 µM [falling, single point]	–
COc1cccc(OC)c1C(=O)OCC(=O)/C(C#N)=C(\C)N	31.6 µM [rising, single point]	–
O=C1OC(c2ccccc2)/C(=C(/O)c2ccc(Cl)cc2)C1=O (configuration not stated)	29.1 µM [falling, single point]	–
O=C(COc1ccc(Br)cc1Br)NC(=S)N1CCCc2ccccc21	5.8 µM [rising, full curve, poor fit]	–
Cc1ccc(S(=O)(=O)N2CCN(C(=O)Cn3c(=O)oc4ccccc43)CC2)cc1	25.9 µM [falling, single point]	–
CCCC(=O)Nc1ccc(S(=O)(=O)N2CCC(c3nc4ccccc4[nH]3)CC2)cc1	2.31 µM [rising, partial curve, poor fit]	–
O=[N+]([O-])c1cc(Cl)c(O)c2ncccc12	8.91 µM [rising, partial curve, poor fit]	11.2 µM [falling, partial curve]
CC(C)(C)C(=O)Nc1ccccc1C(=O)Nc1cc(Cl)ccc1Cl	14.1 µM [rising, single point]	–
Cn1cccc1Cc1nnc(SCC(=O)Nc2ccc(Cl)cc2)n1-c1ccc(F)cc1	20.6 µM [falling, partial curve, poor fit]	–
O=C(CN1CCC(C(=O)c2ccc3c(c2)OCCO3)CC1)Nc1ccccc1C(F)(F)F	6.31 µM [falling, single point]	–
CCCCN(CC)c1nc(-c2ccncc2)nc2ccccc12	8.2 µM [falling, partial curve]	–
Clc1ccc(SCc2csc(N3CCOCC3)n2)cc1	2.24 µM [rising, partial curve, poor fit]	–
COc1ccnc(Oc2ccc(F)cc2)c1C(=O)N/C=N/OCc1c(Cl)cccc1Cl	20.6 µM [falling, single point]	–
C/C(=N\N=c1/sc2ccccc2n1C)c1ccccn1	20 µM [rising, partial curve, poor fit]	–
CCOC(=O)C1=CN(Cc2ccco2)S(=O)(=O)N(C)C1c1ccc2ccccc2c1 (configuration not stated)	29.1 µM [rising, single point]	–
O=C(COc1cccc2cccnc12)N/N=C/c1cccn1-c1ccc(F)cc1	5.62 µM [rising, single point]	–
Cn1c2c(c(=O)n(C)c1=O)C1(C(=O)Nc3ccccc31)C(C#N)=C(N)O2 (configuration not stated)	1.58 µM [falling, partial curve]	–
CCc1nc2cc(Cl)c(Cl)cc2[nH]1	3.26 µM [rising, single point]	–
O=C(Nc1ccc(Cl)cc1)c1ccc2c(c1)OCO2	12.6 µM [falling, partial curve]	–
Cc1cccc(NC(=O)CN2CCc3cc4c(cc3C2C)OCCCO4)c1 (configuration not stated)	12.6 µM [falling, single point]	–
CCN1CCc2c(OCC(=O)Nc3cccc(C)c3)cccc2C1=O	35.5 µM [falling, single point]	–
COCCNC(=O)CSc1nc2cc(OC)c(OC)cc2c(=O)n1CCC1=CCCCC1	29.1 µM [rising, partial curve, poor fit]	–
CCN(CC)CCN(C(=O)c1ccccc1OC)c1nc2ccc(F)cc2s1	35.5 µM [falling, single point]	–
CSc1nnnn1-c1c(C)cc(C)cc1C	35.5 µM [rising, single point]	–
O=C1S/C(=C\c2ccc(O)c([N+](=O)[O-])c2)C(=O)N1c1ccccc1Cl	35.5 µM [falling, single point]	–
CSc1nc(N(C)NC(=O)c2ccccc2)c2ccccc2n1	18.4 µM [rising, single point]	20.6 µM [falling, single point]
Cc1nc(Cl)sc1C(=O)Nc1cccc(Cl)c1C	0.461 µM [falling, partial curve, poor fit]	–
O=C(Nc1nc2cc3c(cc2s1)OCO3)C1=COCCO1	4.61 µM [falling, full curve]	–

Look-ups from the results shown:
O=C1S/C(=C\c2ccc(O)c([N+](=O)[O-])c2)C(=O)N1c1ccccc1Cl – AC50 [1]: 35.5 µM [falling, single point]
CSc1nnnn1-c1c(C)cc(C)cc1C – AC50 [1]: 35.5 µM [rising, single point]
